According to the supplement of paper PMC6078165:

Test system: MDAMB231
Test: relative JC-1 red fluorescence (viability) vs pre-drug, coculture with fibroblast (fraction); higher = more viable cancer cells
Method: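 JC-1 labelled TNBC cells cocultured 1:1 (1,500 cells each) with CellTrace Violet stained primary or stromal fibroblasts in 384-well plates in FluoroBrite medium, treated with one of 42 anticancer drugs at 0.1, 1, 10 or 100 uM. JC-1 red fluorescence (mitochondrial integrity in cancer cells only) was read by plate reader every 8 h for 72 h. Values are normalised to each well's pre-drug value. The stock of one drug was tenfold lower, so its dose labels may be too high.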

C[C@]12CC[C@@H]3c4ccc(O)cc4C[C@@H](CCCCCCCCC[S+]([O-])CCCC(F)(F)C(F)(F)F)[C@H]3[C@@H]1CC[C@@H]2O (stereo partly specified) [Fulvestrant]
relative JC-1 red fluorescence
Settings	8 h	16 h	24 h	32 h	40 h	48 h	56 h	64 h	72 h
0.1 µM, coculture fibroblast: C12385	0.7771	0.7461	0.665	0.651	0.5969	0.5669	0.5231	0.5148	0.488
0.1 µM, coculture fibroblast: H6013	0.897	0.83	0.77	0.729	0.674	0.6374	0.6201	0.5943	0.5688
0.1 µM, coculture fibroblast: H6019	0.75	0.67	0.5974	0.576	0.51987	0.495	0.442	0.411	0.374
0.1 µM, coculture fibroblast: H6076	0.9017	0.811	0.752	0.744	0.713	0.686	0.66	0.647	0.637
0.1 µM, coculture fibroblast: H6231	0.9005	0.7992	0.734	0.683	0.625	0.591	0.542	0.523	0.493
0.1 µM, coculture fibroblast: HADF	0.8823	0.835	0.781	0.749	0.718	0.676	0.655	0.64	0.592
0.1 µM, coculture fibroblast: HCFa	0.895	0.85	0.811	0.781	0.724	0.68	0.636	0.6	0.552
0.1 µM, coculture fibroblast: HCPF	0.881	0.7998	0.721	0.703	0.643	0.601	0.553	0.524	0.5
0.1 µM, coculture fibroblast: HHSteC	0.927	0.866	0.816	0.775	0.736	0.703	0.664	0.64	0.607
0.1 µM, coculture fibroblast: HMF	0.875	0.796	0.732	0.7	0.651	0.62	0.574	0.552	0.536
0.1 µM, coculture fibroblast: HPFa	0.958	0.934	0.87	0.817	0.777	0.729	0.672	0.619	0.541
0.1 µM, coculture fibroblast: HUF	0.869	0.782	0.773	0.65	0.58	0.559	0.507	0.499	0.469
0.1 µM, coculture fibroblast: Hs5	0.8849	0.806	0.757	0.724	0.679	0.63	0.594	0.564	0.531
0.1 µM, coculture fibroblast: Hs27A	0.8885	0.8272	0.7901	0.7708	0.723	0.6546	0.66095	0.638	0.588
0.1 µM, coculture fibroblast: Hs343T	0.878	0.789	0.717	0.688	0.633	0.594	0.547	0.523	0.496
0.1 µM, coculture fibroblast: WS1	0.7625	0.7249	0.633	0.603	0.553	0.538	0.494	0.484	0.467
1 µM, coculture fibroblast: C12385	0.765	0.758	0.699	0.713	0.661	0.642	0.61	0.601	0.581
1 µM, coculture fibroblast: H6013	0.908	0.862	0.8351	0.826	0.7959	0.776	0.779	0.774	0.73183
1 µM, coculture fibroblast: H6019	0.776	0.749	0.709	0.683	0.648	0.632	0.578	0.55	0.508
1 µM, coculture fibroblast: H6076	0.865	0.829	0.83	0.819	0.805	0.777	0.768	0.747	0.736
1 µM, coculture fibroblast: H6231	0.8966	0.8313	0.7978	0.7675	0.7258	0.7052	0.669	0.65	0.618
1 µM, coculture fibroblast: HADF	0.894	0.865	0.854	0.839	0.832	0.79	0.799	0.79	0.746
1 µM, coculture fibroblast: HCFa	0.889	0.843	0.794	0.744	0.691	0.65	0.631	0.609	0.565
1 µM, coculture fibroblast: HCPF	0.911	0.841	0.807	0.794	0.752	0.719	0.698	0.675	0.649
1 µM, coculture fibroblast: HHSteC	0.898	0.90133	0.8643	0.837	0.812	0.7833	0.7556	0.729	0.69
1 µM, coculture fibroblast: HMF	0.8979	0.835	0.796	0.774	0.732	0.697	0.671	0.658	0.636
1 µM, coculture fibroblast: HPFa	0.927	0.894	0.852	0.818	0.804	0.772	0.723	0.696	0.644
1 µM, coculture fibroblast: HUF	0.845	0.753	0.779	0.693	0.651	0.649	0.604	0.598	0.575
1 µM, coculture fibroblast: Hs5	0.881	0.835	0.816	0.787	0.745	0.702	0.682	0.65	0.628
1 µM, coculture fibroblast: Hs27A	0.8737	0.8325	0.8006	0.787	0.745	0.6771	0.687	0.672	0.612
1 µM, coculture fibroblast: Hs343T	0.864	0.7822	0.759	0.736	0.702	0.667	0.638	0.623	0.602
1 µM, coculture fibroblast: WS1	0.7141	0.701	0.648	0.619	0.599	0.572	0.531	0.513	0.49
10 µM, coculture fibroblast: C12385	0.818	0.8423	0.699	0.7984	0.7666	0.75	0.726	0.725	0.711
10 µM, coculture fibroblast: H6013	0.931	0.91	0.89	0.888	0.8445	0.801	0.826	0.824	0.816
10 µM, coculture fibroblast: H6019	0.849	0.849	0.713	0.788	0.754	0.736	0.702	0.673	0.64
10 µM, coculture fibroblast: H6076	0.9594	0.9406	0.8976	0.8911	0.864	0.84	0.811	0.799	0.803
10 µM, coculture fibroblast: H6231	0.739	0.953	0.916	0.906	0.946	0.917	0.903	0.9	0.905
10 µM, coculture fibroblast: HADF	0.9477	0.9367	0.923	0.931	0.912	0.835	0.861	0.857	0.821
10 µM, coculture fibroblast: HCFa	0.9837	0.9896	0.9544	0.9544	0.925	0.879	0.893	0.873	0.856
10 µM, coculture fibroblast: HCPF	0.9691	0.972	0.901	0.904	0.856	0.829	0.795	0.796	0.835
10 µM, coculture fibroblast: HHSteC	0.96	0.855	0.926	0.918	0.88	0.867	0.841	0.832	0.82
10 µM, coculture fibroblast: HMF	0.984	0.963	0.92	0.898	0.874	0.857	0.838	0.8203	0.8081
10 µM, coculture fibroblast: HPFa	0.901	0.9672	0.913	0.8917	0.86694	0.822	0.773	0.7584	0.7385
10 µM, coculture fibroblast: HUF	0.90818	0.8595	0.817	0.792	0.742	0.732	0.684	0.67397	0.672
10 µM, coculture fibroblast: Hs5	0.96	0.958	0.917	0.899	0.868	0.832	0.809	0.811	0.799
10 µM, coculture fibroblast: Hs27A	0.9287	0.909	0.8873	0.884	0.856	0.751	0.816	0.81	0.777
10 µM, coculture fibroblast: Hs343T	0.948	0.9476	0.8902	0.871	0.84	0.8131	0.7683	0.771	0.763
10 µM, coculture fibroblast: WS1	0.826	0.8514	0.714	0.8093	0.791	0.78	0.77	0.771	0.7616
100 µM, coculture fibroblast: C12385	0.871	0.913	0.778	0.906	0.881	0.881	0.881	0.8738	0.867
100 µM, coculture fibroblast: H6013	0.9849	0.97751	0.9592	0.97	0.938	0.904	0.925	0.918	0.892
100 µM, coculture fibroblast: H6019	0.877	0.88	0.793	0.838	0.83	0.824	0.804	0.795	0.774
100 µM, coculture fibroblast: H6076	0.779	0.857	0.826	0.751	0.893	0.784	0.84	0.928	0.9
100 µM, coculture fibroblast: H6231	0.834	0.782	0.743	0.853	0.84	0.9	0.911	0.889	0.797
100 µM, coculture fibroblast: HADF	0.973	0.967	0.942	0.939	0.908	0.835	0.852	0.86	0.836
100 µM, coculture fibroblast: HCFa	0.795	0.835	0.777	0.862	0.814	0.777	0.819	0.797	0.884
100 µM, coculture fibroblast: HCPF	0.837	0.765	0.8	0.823	0.952	0.945	0.892	0.9344	0.88
100 µM, coculture fibroblast: HHSteC	0.9698	0.973	0.944	0.946	0.942	0.839	0.882	0.877	0.887
100 µM, coculture fibroblast: HMF	0.763	0.99638	0.976	0.963	0.9615	0.9474	0.943	0.947	0.972
100 µM, coculture fibroblast: HPFa	0.844	0.722	0.909	0.906	0.924	0.943	0.97	0.959	0.931
100 µM, coculture fibroblast: HUF	0.963	0.927	0.921	0.904	0.871	0.876	0.843	0.827	0.824
100 µM, coculture fibroblast: Hs5	0.878	0.978	0.957	0.935	0.913	0.897	0.887	0.866	0.855
100 µM, coculture fibroblast: Hs27A	0.979	0.976	0.909	0.846	0.906	0.86	0.875	0.874	0.837
100 µM, coculture fibroblast: Hs343T	0.845	0.847	0.848	0.845	0.851	0.87	0.862	0.916	0.898
100 µM, coculture fibroblast: WS1	0.862	0.913	0.736	0.842	0.837	0.815	0.805	0.785	0.789

Values are relative to the signal before dosing, not to a vehicle control; the signal also falls without drug.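 Fibroblast labels denote human fibroblasts, mainly primary ones from uterus (C12385, HUF), lung (H6013), bone (Hs27A), adrenal (HADF) and skin (WS1), plus mammary HMF and breast cancer-associated Hs343T. Cancer cells are basal-like or mesenchymal-like triple-negative breast cancer lines. A hit is a response shift exceeding 3x replicate standard deviation. The tissue of the other fibroblasts is not given here.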
